Some results were stated once for a whole list of compounds, not compound by compound.
What follows are compounds tested on voltage-dependent sodium channels. Details: displacement of [3H] batrachotoxin-A 20-alpha benzoate 5 nM, rat cerebral cortex homogenate, 1 hour 30 minutes at 25° C.
Assay type: binding
`CC(C)Cc1ccc(Cc2nc(-c3ccc(-c4ccccc4)cc3)c[nH]2)cc1` [Example 1, 4-(1,1′-biphenyl-4-yl)-2-(4-isobutylbenzyl)-1H-imidazole] was tested, and the IC50 was ≤ 1000 nM. `CCCCCCc1nc(-c2ccc(CC(C)C)cc2)c[nH]1` [Example 2, 2-hexyl-4-(4-isobutylphenyl)-1H-imidazole] was tested, and the IC50 was ≤ 1000 nM. For `c1ccc(CCCc2nc(-c3ccccc3)c[nH]2)cc1` [Example 3, 4-phenyl-2-(3-phenylpropyl)-1H-imidazole], the IC50 was ≤ 1000 nM. With `CCCCCC(CCCCC)c1nc(-c2ccccc2)c[nH]1` [Example 4, 2-(1-pentylhexyl)-4-phenyl-1H-imidazole] the IC50 was ≤ 1000 nM. In the case of `CCCCCC(CCCCC)c1nc(-c2ccc(F)cc2)c[nH]1` [Example 5, 4-(4-fluorophenyl)-2-(1-pentylhexyl)-1H-imidazole], the IC50 is reported as ≤ 1000 nM. For `Fc1ccc(-c2c[nH]c(CC3CCCCC3)n2)cc1` [Example 6, 2-(cyclohexylmethyl)-4-(4-fluorophenyl)1H-imidazole], the IC50 was ≤ 1000 nM. With `CCCCCC(CCCCC)c1nc(-c2ccc(-c3ccccc3)cc2)c[nH]1` [Example 7, 4-(1,1′-biphenyl-4-yl)-2-(1-pentylhexyl)-1H-imidazole] the IC50 was ≤ 1000 nM. In the case of `CCCC(CCC)c1nc(-c2ccc(C(C)(C)C)cc2)c[nH]1` [Example 8, 4-(4-tert-butylphenyl)-2-(1-propylbutyl)-1H-imidazole], the IC50 is reported as ≤ 1000 nM. `CCCC(CCC)c1nc(-c2ccc(-c3ccc(Br)cc3)cc2)c[nH]1` [Example 10, 4-(4′-bromo-1,1′-biphenyl-4-yl)-2-(1-propylbutyl)-1H-imidazole] was tested, and the IC50 was ≤ 1000 nM. For `c1ccc(-c2ccc(-c3c[nH]c(CCC4CCCCC4)n3)cc2)cc1` [Example 11, 4-(1,1′-biphenyl-4-yl)-2-(2-cyclohexylethyl)-1H-imidazole], the IC50 was ≤ 1000 nM. `CCCCCCc1nc(-c2ccc(-c3ccccc3)cc2)c[nH]1` [Example 12, 4-(1,1′-biphenyl-4-yl)-2-hexyl-1H-imidazole] was tested, and the IC50 was ≤ 1000 nM. With `CC(C)Cc1ccc(C(C)c2nc(-c3ccc(-c4ccccc4)cc3)c[nH]2)cc1` (centres unmarked) [Example 13, 4-(1,1′-biphenyl-4-yl)-2-[1-(4-isobutylphenyl)ethyl]-1H-imidazole] the IC50 was ≤ 1000 nM. In the case of `CC(C)Cc1ccc(C(C)c2nc(-c3ccc(F)cc3)c[nH]2)cc1` (centres unmarked) [Example 14, 4-(4-fluorophenyl)-2-[1-(4-isobutylphenyl)ethyl]-1H-imidazole], the IC50 is reported as ≤ 1000 nM. In the case of `CC(c1ccccc1)c1nc(-c2ccc(-c3ccccc3)cc2)c[nH]1` (centres unmarked) [Example 15, 4-(1,1′-biphenyl-4-yl)-2-(1-phenylethyl)-1H-imidazole], the IC50 is reported as ≤ 1000 nM. `CCCC(CCC)c1nc(-c2ccc(-c3ccccc3)cc2)c[nH]1` [Example 16, 4-(1,1′-biphenyl-4-yl)-2-(1-propylbutyl)-1H-imidazole] was tested, and the IC50 was ≤ 1000 nM. For `c1ccc(-c2ccc(-c3c[nH]c(CC4CCCCC4)n3)cc2)cc1` [Example 17, 4-(1,1′-biphenyl-4-yl)-2-(cyclohexylmethyl)-1H-imidazole], the IC50 was ≤ 1000 nM. `c1ccc(-c2ccc(-c3c[nH]c(CCCC4CCCCC4)n3)cc2)cc1` [Example 18, 4-(1,1′-biphenyl-4-yl)-2-(3-cyclohexylpropyl)-1H-imidazole] was tested, and the IC50 was ≤ 1000 nM.

Source: patent US7402602B2 (priority 2001, dated 2008)
